Here are results for one substance from paper PMC7563687.

Amino acid sequences for entries named in this document (tags omitted).
UniProt Q9WV30: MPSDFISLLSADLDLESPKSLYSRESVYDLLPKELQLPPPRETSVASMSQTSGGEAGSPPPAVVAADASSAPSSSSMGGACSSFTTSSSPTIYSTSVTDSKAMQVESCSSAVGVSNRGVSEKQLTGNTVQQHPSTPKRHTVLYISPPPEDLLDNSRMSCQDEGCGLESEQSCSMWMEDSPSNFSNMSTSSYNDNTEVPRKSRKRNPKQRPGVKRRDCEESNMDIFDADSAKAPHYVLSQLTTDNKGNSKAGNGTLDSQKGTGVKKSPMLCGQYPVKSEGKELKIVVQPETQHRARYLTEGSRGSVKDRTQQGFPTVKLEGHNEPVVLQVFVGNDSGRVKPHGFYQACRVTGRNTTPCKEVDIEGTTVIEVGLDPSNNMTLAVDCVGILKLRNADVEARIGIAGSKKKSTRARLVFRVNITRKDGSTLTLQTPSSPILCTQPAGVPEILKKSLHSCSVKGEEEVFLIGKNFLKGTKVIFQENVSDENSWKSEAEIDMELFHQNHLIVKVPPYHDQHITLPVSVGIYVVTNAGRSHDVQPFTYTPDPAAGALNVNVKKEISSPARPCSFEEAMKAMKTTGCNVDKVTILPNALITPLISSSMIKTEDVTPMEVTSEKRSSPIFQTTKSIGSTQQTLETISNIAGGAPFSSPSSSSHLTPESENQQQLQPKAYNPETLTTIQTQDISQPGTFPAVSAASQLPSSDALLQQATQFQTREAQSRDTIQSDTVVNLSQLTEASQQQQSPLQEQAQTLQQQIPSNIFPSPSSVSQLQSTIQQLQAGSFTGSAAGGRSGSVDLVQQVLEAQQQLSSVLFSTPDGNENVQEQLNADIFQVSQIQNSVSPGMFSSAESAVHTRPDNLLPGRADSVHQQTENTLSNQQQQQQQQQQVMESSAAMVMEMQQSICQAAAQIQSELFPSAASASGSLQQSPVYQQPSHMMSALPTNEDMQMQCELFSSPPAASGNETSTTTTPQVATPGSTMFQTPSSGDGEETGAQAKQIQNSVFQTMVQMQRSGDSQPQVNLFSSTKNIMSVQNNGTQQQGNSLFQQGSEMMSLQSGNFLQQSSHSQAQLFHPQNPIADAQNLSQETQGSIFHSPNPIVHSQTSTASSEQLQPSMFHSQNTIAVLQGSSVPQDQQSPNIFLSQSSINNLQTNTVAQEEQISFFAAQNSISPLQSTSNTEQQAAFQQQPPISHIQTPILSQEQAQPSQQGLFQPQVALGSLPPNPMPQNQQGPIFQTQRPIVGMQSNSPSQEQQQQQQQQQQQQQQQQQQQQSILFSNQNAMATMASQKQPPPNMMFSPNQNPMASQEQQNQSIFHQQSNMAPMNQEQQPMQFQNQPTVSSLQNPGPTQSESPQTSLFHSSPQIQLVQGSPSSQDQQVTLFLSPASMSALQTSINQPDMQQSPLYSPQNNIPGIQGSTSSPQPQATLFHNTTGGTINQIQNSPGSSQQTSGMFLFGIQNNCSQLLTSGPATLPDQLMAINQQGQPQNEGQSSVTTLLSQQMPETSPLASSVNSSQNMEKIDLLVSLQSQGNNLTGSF
UniProt Q9ESK9: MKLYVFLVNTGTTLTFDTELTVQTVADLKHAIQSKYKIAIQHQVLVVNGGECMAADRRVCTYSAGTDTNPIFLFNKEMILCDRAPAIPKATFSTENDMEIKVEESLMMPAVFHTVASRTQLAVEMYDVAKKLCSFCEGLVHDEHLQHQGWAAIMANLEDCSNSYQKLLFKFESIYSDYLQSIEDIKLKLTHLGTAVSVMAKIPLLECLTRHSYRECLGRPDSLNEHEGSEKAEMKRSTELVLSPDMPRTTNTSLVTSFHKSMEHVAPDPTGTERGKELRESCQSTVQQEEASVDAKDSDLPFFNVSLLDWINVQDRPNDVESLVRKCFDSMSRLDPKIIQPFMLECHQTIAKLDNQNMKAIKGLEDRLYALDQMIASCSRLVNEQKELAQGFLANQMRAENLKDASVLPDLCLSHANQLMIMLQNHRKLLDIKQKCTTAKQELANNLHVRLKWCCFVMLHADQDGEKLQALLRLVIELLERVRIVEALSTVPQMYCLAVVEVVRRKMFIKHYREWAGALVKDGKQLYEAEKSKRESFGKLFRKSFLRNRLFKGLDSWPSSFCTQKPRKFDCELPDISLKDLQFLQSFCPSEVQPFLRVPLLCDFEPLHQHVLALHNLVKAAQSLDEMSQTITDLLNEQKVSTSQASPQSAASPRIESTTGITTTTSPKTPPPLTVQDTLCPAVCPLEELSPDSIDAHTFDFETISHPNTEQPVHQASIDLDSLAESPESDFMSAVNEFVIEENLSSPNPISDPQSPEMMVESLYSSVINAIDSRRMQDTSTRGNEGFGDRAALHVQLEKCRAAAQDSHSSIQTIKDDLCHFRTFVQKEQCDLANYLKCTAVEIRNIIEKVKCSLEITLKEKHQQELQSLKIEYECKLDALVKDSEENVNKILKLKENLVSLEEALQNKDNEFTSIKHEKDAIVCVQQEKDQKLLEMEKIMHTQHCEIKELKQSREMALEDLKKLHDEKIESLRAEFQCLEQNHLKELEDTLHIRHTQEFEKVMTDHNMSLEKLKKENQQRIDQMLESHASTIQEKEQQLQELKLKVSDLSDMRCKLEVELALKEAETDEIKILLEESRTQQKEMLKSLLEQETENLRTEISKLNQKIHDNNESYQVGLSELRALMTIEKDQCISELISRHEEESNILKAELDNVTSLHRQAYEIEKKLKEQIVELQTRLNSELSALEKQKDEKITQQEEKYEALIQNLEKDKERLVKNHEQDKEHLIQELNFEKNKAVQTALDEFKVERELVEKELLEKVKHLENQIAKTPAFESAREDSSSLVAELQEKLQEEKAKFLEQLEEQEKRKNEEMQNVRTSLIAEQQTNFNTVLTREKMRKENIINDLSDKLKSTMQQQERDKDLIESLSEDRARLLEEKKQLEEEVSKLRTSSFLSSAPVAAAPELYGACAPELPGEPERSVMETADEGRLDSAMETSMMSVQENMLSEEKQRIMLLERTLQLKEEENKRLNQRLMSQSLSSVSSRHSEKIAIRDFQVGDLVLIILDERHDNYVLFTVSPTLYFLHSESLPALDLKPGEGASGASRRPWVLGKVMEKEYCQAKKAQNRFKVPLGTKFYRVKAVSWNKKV

These are yes or no findings as the source states them, for the method shown. Binding seen in cells or lysates may run through a third protein. Some binding calls cover weakened binding; strength is not graded here.

This assay concerns the target Tonicity-responsive enhancer-binding protein (TonEBP), endogenous in MIN6-M9 cells (mouse (endogenous in MIN6-M9)) (UniProt Q9WV30). Description: co-IP; endogenous proteins; MIN6-M9 cell lysates (RIPA buffer) immunoprecipitated with TonEBP antibody or normal serum, immunoblotted for FIP200 and TonEBP. For orientation: In western blotting, separated proteins are transferred to a membrane and probed.

Regarding “FIP200, endogenous in MIN6-M9 cells (from UniProt Q9ESK9 1-1588)”, the binding result was “binds”.
